The list shows a part of the results. Further columns of the screen follow, without active or inactive calls. Most of these compounds were active or inconclusive in the main read-out, so they are no random draw. Words in brackets tell the shape of the fitted curve; partial curves, single points and poor fits give uncertain potencies.

A short description of this assay: qHTS Assay for Lipid Storage Modulators in Drosophila S3 Cells.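 For cell number change: cells counted by Cell Tracker Red CMTPX staining in the red channel.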 The note with it: BODIPY lipid droplet fluorescence, 18-24 h; for cell number change: measured here: cell count max response, cells fed with added oleic acid. Put shortly:
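Drosophila S3 cells got compounds at several concentrations plus oleic acid (400 uM solution). Laser-scanning cytometry with 488 nm excitation read lipid droplets at 500-530 nm and cells at 575-640 nm. Percent activity was relative to 20 uM Triacsin C.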
(qHTS replaces the single test concentration by a dilution series.)

Where [1] appears, read: measured here: lipid fluorescence (Fed channel) AC50, cells fed with added oleic acid.
Setting [2] is: measured here: cell number channel AC50, cells fed with added oleic acid.

For `C/C(=N\NC(=O)c1ccoc1C)c1ccc(Cl)s1`, the cell number change is -29.7%. Under setting [1], the AC50 is 4.11 µM [rising, full curve].

For the compound `CCN1/C(=C/c2ccc3cc(C)ccc3[n+]2CC)Sc2ccccc21`, the cell number change is -60.6%. For the same compound, the half-maximal activity concentration (AC50) under setting [2] was 2.06 µM [falling, partial curve]. Moreover, under setting [1], the concentration at half-maximal activity (AC50) was 1.16 µM [falling, full curve].

Take `CC(C)(C)OC(=O)CNC(=O)c1[nH]cnc1C(=O)NCC(=O)OCc1ccccc1`: the cell number change turned out to be 25.4%. Further, the concentration at half-maximal activity (AC50) under setting [1] is 2.06 µM [falling, partial curve, poor fit].

As for `CCCC1(c2ccccc2)NC(=O)N(CC(=O)NCC2COc3ccccc3O2)C1=O` (configuration not stated), the cell number change worked out at 14.4%. Moreover, the concentration at half-maximal activity (AC50) under setting [2] is 1.3 µM [falling, full curve, poor fit]. Also, under setting [1], the AC50 was 2.06 µM [falling, partial curve].

As for `Cc1ccc(Cl)cc1NC(=O)Cn1cc2c(n1)CCCC2`, the cell number change is -11.9%. The concentration at half-maximal activity (AC50) under setting [1] is 11.6 µM [rising, partial curve].

For `c1csc(Cn2nnnc2CN2CCN(c3nc4ccccc4s3)CC2)c1`, the cell number change was -21.4%. The AC50 under setting [1] was 16.4 µM [rising, partial curve, poor fit].

For `Cc1ccc(CNC(=O)c2ccc(NS(=O)(=O)c3c(C)noc3C)cc2)cc1`, the cell number change was -5.34%. Further, under setting [2], the AC50 is 6.51 µM [falling, single point].

For `COCC(=O)OCC(=O)Nc1cc(C)c(C)cc1[N+](=O)[O-]`, the cell number change is -50%. Besides, the concentration at half-maximal activity (AC50) under setting [2] was 29.1 µM [falling, single point]. In addition, the concentration at half-maximal activity (AC50) under setting [1] is 6.51 µM [falling, single point].

For `N=c1c(C(=O)NCc2ccco2)cc2c(=O)n3ccccc3nc2n1C1CCCC1`, the concentration at half-maximal activity (AC50) under setting [1] was 1.84 µM [falling, full curve].

With `CC(=O)c1cc(NC(=O)c2ccc(C)cc2)c(=O)oc1/C=C/N(C)C`, under setting [1], the AC50 was 0.58 µM [falling, single point].

On to `O=C(NCCCN1CCOCC1)c1cc(-c2ccc(F)cc2)no1`, for which the cell number change was -23.7%. In addition, the AC50 under setting [1] was 1.3 µM [falling, partial curve].

With `CCC1=NN(C(=O)Cc2ccc(OC)cc2)C(O)(C(F)(F)F)C1` (configuration not stated), the cell number change is 121%. The AC50 under setting [2] is 29.1 µM [rising, partial curve, poor fit].

For the compound `Nc1ccc(N2C(=O)c3ccccc3C2=O)c(Cl)c1`, the cell number change came to 36.4%. Moreover, the AC50 under setting [2] was 14.6 µM [rising, partial curve, poor fit]. Also, under setting [1], the concentration at half-maximal activity (AC50) was 2.91 µM [rising, partial curve, poor fit].

For `CC(C)COC(=O)N1C[C@H](O)C[C@H]1C(=O)Nc1ccc(Cl)cc1`, the cell number change was determined as 6.02%. Further, the AC50 under setting [1] was 2.91 µM [rising, single point].

On to `CCOC(=O)c1c(C)[nH]c(C(=O)OCC(=O)Nc2cc(C)ccc2OC)c1C`, for which the cell number change was -2.23%. The AC50 under setting [1] is 0.326 µM [rising, full curve].

In the case of `CCCNC(=O)c1onc(CSc2ccccc2)c1C(=O)NCCC`, the cell number change was 12.7%. The half-maximal activity concentration (AC50) under setting [1] was 0.731 µM [falling, partial curve].

Turning to `COc1ccc(CNc2ncc(-c3ccccc3)n2C)cc1`, the cell number change turned out to be 12.4%.

`COc1ccc(CNC(=S)N2CCN(Cc3ccccc3)CC2)cc1`: the cell number change was found to be 17.9%. Besides, the AC50 under setting [1] is 3.66 µM [rising, single point].

For the compound `CN(CC(=O)NCc1ccc(F)cc1)S(=O)(=O)c1ccc(Br)s1`, the cell number change came out at 42.1%. The AC50 under setting [2] is 4.61 µM [rising, full curve, poor fit].

Consider `S=c1[nH]nc(-c2ccccc2Br)n1Cc1ccccc1`, for which the cell number change was 5.77%. In addition, the half-maximal activity concentration (AC50) under setting [1] is 13 µM [falling, partial curve].

Consider `COc1cccc(C2NC(=O)NC(O)(C(F)(F)F)C2C(=O)c2cccnc2)c1OC` (configuration not stated), for which the cell number change is -12.4%. In addition, the AC50 under setting [1] is 0.411 µM [falling, full curve, poor fit].

Regarding `CC(C)CC(=O)Nc1ccc(C(=O)CN2C(=O)NC3(CCOc4ccccc43)C2=O)cc1` (configuration not stated), the half-maximal activity concentration (AC50) under setting [2] was 0.58 µM [rising, single point].

For the compound `O=C1CC(c2ccc(S(=O)(=O)N3CCN(c4ccccc4)CC3)cc2)CN1` (configuration not stated), the half-maximal activity concentration (AC50) under setting [2] is 0.82 µM [rising, full curve].

Take `O=C(Nc1ccc2oc(-c3ccccc3)nc2c1)c1ccco1`: the cell number change amounted to 23.9%.

`O=C(CCN1CCC(c2cccs2)=N1)c1cccs1`: the cell number change is -36.5%. In addition, under setting [2], the concentration at half-maximal activity (AC50) was 4.11 µM [falling, full curve]. The AC50 under setting [1] is 6.51 µM [falling, single point].

As to `Cc1cccc(OCC(=O)NC(=S)NNC(=O)c2ccncc2)c1`, the cell number change is -30.8%. In addition, under setting [2], the half-maximal activity concentration (AC50) is 10.3 µM [falling, partial curve]. Further, under setting [1], the AC50 is 11.6 µM [falling, single point].

On to `COc1ccc(NC(=O)c2cccc(N3C(=O)C4C5CCC(C5)C4C3=O)c2)cc1` (configuration not stated), for which the cell number change was -5.87%.

On to `COc1ccc(N2CCN(CCCNC(=O)c3cc4sccc4n3C)CC2)cc1`, for which the cell number change is 18.5%. Under setting [1], the AC50 was 7.31 µM [rising, partial curve, poor fit].

Turning to `CC(CC(=O)Nc1ccc(F)c([N+](=O)[O-])c1)c1ccccc1` (configuration not stated), the cell number change worked out at 33.3%. Besides, the half-maximal activity concentration (AC50) under setting [2] was 18.4 µM [rising, single point].

`COc1ccc(N(C(=O)C(C)C)S(=O)(=O)c2ccc3ccccc3c2)cc1`: the cell number change came out at 7.3%. Further, the AC50 under setting [2] is 4.11 µM [rising, partial curve, poor fit]. For the same compound, the AC50 under setting [1] was 29.1 µM [falling, single point].

On to `CC1CCCCC1NC(=O)C1CCCN(S(=O)(=O)c2ccc(-n3cnnn3)cc2)C1` (configuration not stated), for which the cell number change was determined as 8.75%.

Turning to `CCN1C(=O)[C@H]2[C@@H](c3ccc(-c4ccc(Cl)c(Cl)c4)c(OC)c3)N[C@@](Cc3ccccc3)(C(=O)OC)[C@H]2C1=O`, the cell number change came out at 1.19%. Further, the half-maximal activity concentration (AC50) under setting [1] is 2.59 µM [falling, partial curve].

Consider `CN(C)c1ccc(/C=N/NC(=O)c2nnn(-c3nonc3N)c2COc2ccc(F)cc2)cc1`, for which the cell number change is -31.5%. Moreover, the AC50 under setting [2] was 29.1 µM [falling, single point]. For the same compound, the AC50 under setting [1] is 29.1 µM [falling, single point].

On to `O=C(c1ccc2c(c1)OCO2)C1CCCN(Cc2c(F)ccc(F)c2F)C1` (configuration not stated), for which the cell number change worked out at 3.3%.

Turning to `CCCCCCCNC(=O)C1(CC2CC(c3cccc(Br)c3)=NO2)CCN(C(=O)Cc2ccc(F)cc2)CC1` (configuration not stated), the cell number change was determined as 4.16%. Also, the concentration at half-maximal activity (AC50) under setting [2] was 0.461 µM [falling, full curve]. The AC50 under setting [1] was 0.517 µM [falling, full curve].

Regarding `COc1ccccc1C(=O)O/N=C(\c1ccccc1)c1ccncc1`, the cell number change turned out to be 34%. For the same compound, the AC50 under setting [2] was 29.1 µM [rising, single point].

In general, AC50 refers to the midpoint of the concentration-response curve, whichever way the signal moves. Read a low AC50 as activity at low concentration.

For the origin of these results see PubChem BioAssay AID2685 (National Center for Advancing Translational Sciences (NCATS), 2010).
